Taken from: PubChem BioAssay AID1224828 (NIAID, 2016)
Here is a random part of about 17,000 reagents. 762 of them (4.5%) count as active. 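Active calls include both raised and lowered p65 entry, mostly lowered; wells with fewer than 50 cells lack a z-score.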 Raw values are not corrected between plates.

- Aim: 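Knock-downs that increase or decrease LPS-induced p65 nuclear translocation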 (primary screen)
- Cells: mouse RAW264.7 G9 macrophage reporter cells (GFP-p65, Tnf promoter-mCherry)
- Reagent: siRNA pool against mouse genes, 100 nM
- Duration: 2 days siRNA transfection, then 40 min LPS before fixation
- Challenge: LPS (Salmonella minnesota R595) at 10 ng/ml
- Detection: 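Imaged p65 nuclear translocation ratio, normalised to the plate median, converted to robust z-scores and averaged across two replicates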
- Reading the numbers: p65 translocation robust z-score: higher = more nuclear NF-kappaB p65 after LPS than the plate median; nuclear/cytoplasmic p65 ratio: higher = more nuclear NF-kappaB p65
- Hit rule: 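Active if robust z is above 3.3 (negative regulators) or below -1.56, the Tlr4 control median (positive regulators); activity score 50 or more; control wells not called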
- Meaning of the calls: active = hit (p65 shift raised or lowered); inactive = no clear change

| target gene | p65 translocation robust z-score | nuclear/cytoplasmic p65 ratio, rep 1 | nuclear/cytoplasmic p65 ratio, rep 2 | low cell count flag | outcome |
| --- | --- | --- | --- | --- | --- |
| Fundc2b | -0.61 | 1.45 | 1.59 | enough cells to score | inactive |
| Nkx2-5 | 1.13 | 1.54 | 1.62 | enough cells to score | inactive |
| Tm9sf4 | – | 1.58 | 1.33 | fewer than 50 cells per well; well left out of scoring | inactive |
| Tmem266 | -0.08 | 1.53 | 1.74 | enough cells to score | inactive |
| Or14a259 | 0.64 | 1.71 | 1.5 | enough cells to score | inactive |
| Pycr3 | 0.23 | 1.56 | 1.38 | enough cells to score | inactive |
| Ss18l1 | -0.85 | 1.25 | 1.18 | enough cells to score | inactive |
| Or2b4 | 0.78 | 1.84 | 1.43 | enough cells to score | inactive |
| Cnn1 | -0.21 | 1.57 | 1.74 | enough cells to score | inactive |
| Aire | 1.25 | 1.73 | 1.88 | enough cells to score | inactive |
| Ptpn23 | -0.75 | 1.39 | 1.31 | enough cells to score | inactive |
| Fth1 | -0.8 | 1.36 | 1.24 | enough cells to score | inactive |
| Cxcr4 | – | 1.65 | 1.75 | fewer than 50 cells per well; well left out of scoring | inactive |
| Pih1d2 | -0.19 | 1.41 | 1.44 | enough cells to score | inactive |
| Arr3 | -0.77 | 1.56 | 1.33 | enough cells to score | inactive |
| Tmem98 | 0.3 | 1.67 | 1.65 | enough cells to score | inactive |
| Rpp21 | 0.68 | 1.5 | 1.31 | enough cells to score | inactive |
| Slc43a2 | – | 1.33 | 1.6 | fewer than 50 cells per well; well left out of scoring | inactive |
| Capza1b | 0.04 | 1.24 | 1.31 | enough cells to score | inactive |
| H3c1 | 0.89 | 1.58 | 1.68 | enough cells to score | inactive |
| Sema4g | – | 1.6 | 1.28 | fewer than 50 cells per well; well left out of scoring | inactive |
| Syt16 | 1.56 | 1.63 | 1.36 | enough cells to score | inactive |
| Mtus1 | -0.68 | 1.6 | 1.55 | enough cells to score | inactive |
| Tspyl1 | – | 1.86 | 1.46 | fewer than 50 cells per well; well left out of scoring | inactive |
| Cd300c2 | 0.56 | 1.51 | 1.44 | enough cells to score | inactive |
| Pkm | -0.49 | 1.61 | 1.25 | enough cells to score | inactive |
| Polr3h | – | 1.28 | 1.03 | fewer than 50 cells per well; well left out of scoring | inactive |
| Gspt2 | -0.29 | 1.67 | 1.44 | enough cells to score | inactive |
| Col19a1 | 0.06 | 1.55 | 1.32 | enough cells to score | inactive |
| Uba1y | – | 1.41 | 1.34 | fewer than 50 cells per well; well left out of scoring | inactive |
| Dchs1 | -0.45 | 1.57 | 1.53 | enough cells to score | inactive |
| Pxmp2 | 0.08 | 1.54 | 1.75 | enough cells to score | inactive |
| Cp | -0.83 | 1.42 | 1.22 | enough cells to score | inactive |
| Or51f1e | -1.74 | 1.12 | 1.14 | enough cells to score | active |
| Gm5069 | 0.53 | 1.86 | 1.57 | enough cells to score | inactive |
| Sack1f | -1.07 | 1.51 | 1.42 | enough cells to score | inactive |
| Synpo2l | 0.61 | 1.49 | 1.22 | enough cells to score | inactive |
| Gria2 | -0.01 | 1.37 | 1.43 | enough cells to score | inactive |
| Fgd3 | -0.95 | 1.33 | 1.45 | enough cells to score | inactive |
| Hebp2 | 1.16 | 2 | 1.55 | enough cells to score | inactive |
| Ccdc127 | -1.38 | 1.27 | 1.33 | enough cells to score | inactive |
| Chordc1 | -0.73 | 1.58 | 1.56 | enough cells to score | inactive |
| Mcpt2 | -0.07 | 1.77 | 1.48 | enough cells to score | inactive |
| Ces2a | -0.57 | 1.35 | 1.47 | enough cells to score | inactive |
| Scn4a | 1.25 | 1.71 | 1.84 | enough cells to score | inactive |
| Or52j3 | -1.23 | 1.3 | 1.11 | enough cells to score | inactive |
| Fam114a1 | 1.14 | 1.65 | 1.63 | enough cells to score | inactive |
| Stmn1 | 0.37 | 1.44 | 1.77 | enough cells to score | inactive |
| Parva | 1.04 | 1.49 | 1.64 | enough cells to score | inactive |
| St3gal6 | 1.78 | 1.68 | 1.43 | enough cells to score | inactive |
| Col11a2 | 0.08 | 1.5 | 1.37 | enough cells to score | inactive |
| Ttk | – | 1.46 | 1.33 | fewer than 50 cells per well; well left out of scoring | inactive |
| Baz2a | 1.08 | 1.71 | 2.06 | enough cells to score | inactive |
| Acsm4 | – | 1.32 | 1.35 | fewer than 50 cells per well; well left out of scoring | inactive |
| Frs3 | 0.41 | 1.48 | 1.44 | enough cells to score | inactive |
| Gsta1 | -1.09 | 1.59 | 1.28 | enough cells to score | inactive |
| Tnik | -0.95 | 1.54 | 1.26 | enough cells to score | inactive |
| 2410137M14Rik | -0.1 | 1.39 | 1.52 | enough cells to score | inactive |
| Or5b3 | 2.63 | 2.06 | 1.72 | enough cells to score | inactive |

Records above with an active call (1):
| target gene | p65 translocation robust z-score | nuclear/cytoplasmic p65 ratio, rep 1 | nuclear/cytoplasmic p65 ratio, rep 2 | low cell count flag | outcome |
| --- | --- | --- | --- | --- | --- |
| Or51f1e | -1.74 | 1.12 | 1.14 | enough cells to score | active |
